The other results are listed elsewhere or left out.
Columns and labels:
Experiment in all cases: log2 fold change, soluble protein after heating vs DMSO (PISA); higher = thermal stabilisation; K562 cells, 10 uM, 30 min; active = over 0.2 and 3.5 SD of the protein, either way, in both replicates (recomputed)
[1] = compound: NC(=O)Nc1cc(-c2cccc(F)c2)sc1C(=O)N[C@H]1CCCNC1
Outline: (§1)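 For each measurement, 10 μM compound was applied for 30 min to K562 cells at 2×10^6 cells/mL. Aliquots were heated for 3 min across 48°C-58°C, pooled, and extracted in PBS with 0.5% NP-40 at 4°C; the supernatant after 21,000xg for 90 min was soluble protein. This was quantified by TMTpro 16plex LC-MS/MS with channel sums equalised, and thermal stability was reported relative to control samples from duplicates, on a log2 fold-change scale.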

The chains behind the UniProt entries cited, without tags or fusion partners. Where a name states a change or a piece, a line headed by the entry shows the natural chain unless it says otherwise.
UniProt Q6PII5: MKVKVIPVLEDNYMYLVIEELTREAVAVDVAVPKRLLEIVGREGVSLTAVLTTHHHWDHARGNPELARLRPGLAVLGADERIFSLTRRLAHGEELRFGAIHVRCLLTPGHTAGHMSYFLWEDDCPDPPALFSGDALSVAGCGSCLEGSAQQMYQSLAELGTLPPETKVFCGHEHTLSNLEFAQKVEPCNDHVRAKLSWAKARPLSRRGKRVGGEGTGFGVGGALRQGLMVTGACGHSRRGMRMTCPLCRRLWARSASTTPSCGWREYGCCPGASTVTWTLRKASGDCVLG
UniProt Q8N3Z3: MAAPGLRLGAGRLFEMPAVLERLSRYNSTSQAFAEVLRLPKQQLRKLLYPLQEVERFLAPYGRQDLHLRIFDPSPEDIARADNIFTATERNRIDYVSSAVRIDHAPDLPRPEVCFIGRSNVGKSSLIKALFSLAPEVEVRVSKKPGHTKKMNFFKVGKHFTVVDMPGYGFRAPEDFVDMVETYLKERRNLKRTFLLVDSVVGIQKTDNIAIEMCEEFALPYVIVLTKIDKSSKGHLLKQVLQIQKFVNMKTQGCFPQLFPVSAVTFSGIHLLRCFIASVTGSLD
UniProt Q6Y1H2: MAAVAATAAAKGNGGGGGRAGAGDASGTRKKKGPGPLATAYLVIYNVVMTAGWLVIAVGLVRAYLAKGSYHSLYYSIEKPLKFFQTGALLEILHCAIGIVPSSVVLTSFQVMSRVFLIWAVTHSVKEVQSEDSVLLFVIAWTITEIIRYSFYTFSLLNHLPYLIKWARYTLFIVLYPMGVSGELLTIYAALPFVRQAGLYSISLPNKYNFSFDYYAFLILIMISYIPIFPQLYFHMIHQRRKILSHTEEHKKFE
UniProt Q9H116: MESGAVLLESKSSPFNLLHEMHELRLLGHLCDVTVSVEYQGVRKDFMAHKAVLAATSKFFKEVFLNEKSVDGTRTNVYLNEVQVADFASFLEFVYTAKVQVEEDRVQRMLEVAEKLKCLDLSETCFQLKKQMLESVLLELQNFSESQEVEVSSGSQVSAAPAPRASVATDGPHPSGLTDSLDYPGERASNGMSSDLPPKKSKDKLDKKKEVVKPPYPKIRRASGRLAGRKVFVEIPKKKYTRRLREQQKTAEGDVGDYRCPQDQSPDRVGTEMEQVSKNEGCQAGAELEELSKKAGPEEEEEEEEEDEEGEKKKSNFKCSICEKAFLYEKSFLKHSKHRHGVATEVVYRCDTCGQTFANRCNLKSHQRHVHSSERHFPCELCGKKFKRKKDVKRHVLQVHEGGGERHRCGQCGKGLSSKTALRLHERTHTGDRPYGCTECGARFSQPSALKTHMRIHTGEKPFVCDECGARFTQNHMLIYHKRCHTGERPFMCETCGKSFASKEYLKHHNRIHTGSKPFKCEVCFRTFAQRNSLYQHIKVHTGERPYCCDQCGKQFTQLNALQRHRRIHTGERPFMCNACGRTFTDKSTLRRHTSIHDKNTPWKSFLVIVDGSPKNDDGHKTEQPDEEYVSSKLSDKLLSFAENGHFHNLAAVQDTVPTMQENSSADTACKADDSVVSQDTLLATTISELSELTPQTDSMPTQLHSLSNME
UniProt Q9BY41: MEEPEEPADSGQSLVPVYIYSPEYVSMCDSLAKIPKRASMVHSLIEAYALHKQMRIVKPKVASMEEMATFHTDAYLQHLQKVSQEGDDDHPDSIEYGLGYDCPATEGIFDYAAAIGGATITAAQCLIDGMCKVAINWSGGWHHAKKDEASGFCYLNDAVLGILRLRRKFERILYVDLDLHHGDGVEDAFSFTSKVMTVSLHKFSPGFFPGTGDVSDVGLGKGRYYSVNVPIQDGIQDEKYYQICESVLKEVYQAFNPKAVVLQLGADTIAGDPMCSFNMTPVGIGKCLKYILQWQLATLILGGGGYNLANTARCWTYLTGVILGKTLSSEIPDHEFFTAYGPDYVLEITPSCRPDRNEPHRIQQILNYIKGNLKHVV
UniProt Q9P0R6: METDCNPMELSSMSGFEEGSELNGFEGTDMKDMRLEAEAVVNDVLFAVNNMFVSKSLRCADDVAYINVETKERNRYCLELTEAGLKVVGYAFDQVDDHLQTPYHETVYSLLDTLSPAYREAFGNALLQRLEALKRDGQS
UniProt Q9BSE4: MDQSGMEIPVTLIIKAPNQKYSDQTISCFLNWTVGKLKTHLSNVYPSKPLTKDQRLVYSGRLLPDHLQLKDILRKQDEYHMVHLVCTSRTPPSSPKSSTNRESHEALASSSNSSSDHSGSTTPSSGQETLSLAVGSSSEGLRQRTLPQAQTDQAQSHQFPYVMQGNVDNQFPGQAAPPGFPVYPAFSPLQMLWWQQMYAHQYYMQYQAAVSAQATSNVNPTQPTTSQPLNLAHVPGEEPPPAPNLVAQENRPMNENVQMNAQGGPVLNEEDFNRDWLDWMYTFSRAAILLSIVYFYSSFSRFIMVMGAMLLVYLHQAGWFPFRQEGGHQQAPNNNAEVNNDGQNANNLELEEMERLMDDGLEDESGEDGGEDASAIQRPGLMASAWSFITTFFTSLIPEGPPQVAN
UniProt Q93099: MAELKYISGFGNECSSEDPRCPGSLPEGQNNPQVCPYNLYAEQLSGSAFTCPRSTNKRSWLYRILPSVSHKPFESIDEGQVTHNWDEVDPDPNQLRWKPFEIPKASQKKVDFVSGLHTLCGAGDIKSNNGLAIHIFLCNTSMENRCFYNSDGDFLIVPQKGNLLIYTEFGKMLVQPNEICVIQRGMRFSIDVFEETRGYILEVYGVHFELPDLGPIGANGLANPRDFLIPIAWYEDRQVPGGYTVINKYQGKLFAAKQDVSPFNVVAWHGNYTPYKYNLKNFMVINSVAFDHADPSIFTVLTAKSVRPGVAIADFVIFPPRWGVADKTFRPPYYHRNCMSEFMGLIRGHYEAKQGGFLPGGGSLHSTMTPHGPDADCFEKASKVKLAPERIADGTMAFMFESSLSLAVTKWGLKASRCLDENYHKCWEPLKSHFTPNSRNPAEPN
UniProt Q14469: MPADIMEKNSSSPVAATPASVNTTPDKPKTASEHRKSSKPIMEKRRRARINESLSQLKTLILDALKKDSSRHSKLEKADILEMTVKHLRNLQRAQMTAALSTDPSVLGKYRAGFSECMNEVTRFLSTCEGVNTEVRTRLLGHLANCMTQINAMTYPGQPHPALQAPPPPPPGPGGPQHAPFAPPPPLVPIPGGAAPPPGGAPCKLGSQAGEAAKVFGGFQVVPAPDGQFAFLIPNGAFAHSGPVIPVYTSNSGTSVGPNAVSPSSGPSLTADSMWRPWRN
UniProt Q9Y5Q9: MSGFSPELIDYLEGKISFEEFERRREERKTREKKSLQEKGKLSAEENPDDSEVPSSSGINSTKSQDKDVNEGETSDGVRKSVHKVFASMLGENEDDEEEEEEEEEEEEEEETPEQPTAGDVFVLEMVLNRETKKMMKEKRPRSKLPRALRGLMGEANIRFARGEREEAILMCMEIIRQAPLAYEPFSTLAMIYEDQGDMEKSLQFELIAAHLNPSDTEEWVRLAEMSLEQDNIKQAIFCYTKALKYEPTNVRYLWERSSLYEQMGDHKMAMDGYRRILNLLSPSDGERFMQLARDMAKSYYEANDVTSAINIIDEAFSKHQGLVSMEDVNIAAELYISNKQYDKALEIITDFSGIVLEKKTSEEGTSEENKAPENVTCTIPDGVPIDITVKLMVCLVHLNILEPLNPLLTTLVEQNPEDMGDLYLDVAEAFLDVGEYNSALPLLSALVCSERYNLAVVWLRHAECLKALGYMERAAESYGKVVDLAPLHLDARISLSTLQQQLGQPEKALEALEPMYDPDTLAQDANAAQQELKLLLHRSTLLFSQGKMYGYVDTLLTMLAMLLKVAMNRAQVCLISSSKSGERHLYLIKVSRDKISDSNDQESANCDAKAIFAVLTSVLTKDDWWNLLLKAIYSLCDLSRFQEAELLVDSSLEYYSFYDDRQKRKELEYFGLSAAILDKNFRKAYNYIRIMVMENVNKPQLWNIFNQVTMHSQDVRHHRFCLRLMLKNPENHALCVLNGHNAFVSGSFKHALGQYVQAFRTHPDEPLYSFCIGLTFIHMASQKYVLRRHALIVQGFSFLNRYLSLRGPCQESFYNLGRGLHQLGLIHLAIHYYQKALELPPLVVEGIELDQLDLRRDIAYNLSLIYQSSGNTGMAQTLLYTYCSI
UniProt P08263: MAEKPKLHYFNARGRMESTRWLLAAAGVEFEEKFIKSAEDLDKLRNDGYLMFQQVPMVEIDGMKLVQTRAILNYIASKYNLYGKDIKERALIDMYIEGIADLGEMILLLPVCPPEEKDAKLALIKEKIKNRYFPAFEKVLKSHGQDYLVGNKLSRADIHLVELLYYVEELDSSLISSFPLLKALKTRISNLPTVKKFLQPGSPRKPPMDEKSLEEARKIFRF
UniProt Q5JVS0: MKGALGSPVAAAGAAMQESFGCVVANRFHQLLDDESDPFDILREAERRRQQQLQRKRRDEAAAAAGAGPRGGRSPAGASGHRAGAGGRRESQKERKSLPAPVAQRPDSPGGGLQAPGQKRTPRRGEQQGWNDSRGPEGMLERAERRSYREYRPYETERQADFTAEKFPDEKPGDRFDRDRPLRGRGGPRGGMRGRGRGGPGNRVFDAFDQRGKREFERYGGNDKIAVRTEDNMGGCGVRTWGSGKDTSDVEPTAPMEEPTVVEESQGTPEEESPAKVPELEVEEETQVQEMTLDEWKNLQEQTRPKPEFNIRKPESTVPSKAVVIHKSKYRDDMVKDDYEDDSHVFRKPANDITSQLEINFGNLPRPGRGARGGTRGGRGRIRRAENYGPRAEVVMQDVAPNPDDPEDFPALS
UniProt P07305, whole entry, looked up: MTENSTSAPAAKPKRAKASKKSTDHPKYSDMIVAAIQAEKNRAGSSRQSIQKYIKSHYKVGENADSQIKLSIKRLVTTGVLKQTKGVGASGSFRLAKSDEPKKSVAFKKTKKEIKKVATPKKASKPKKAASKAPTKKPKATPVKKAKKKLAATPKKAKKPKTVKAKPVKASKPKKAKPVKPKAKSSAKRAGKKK
UniProt P30711: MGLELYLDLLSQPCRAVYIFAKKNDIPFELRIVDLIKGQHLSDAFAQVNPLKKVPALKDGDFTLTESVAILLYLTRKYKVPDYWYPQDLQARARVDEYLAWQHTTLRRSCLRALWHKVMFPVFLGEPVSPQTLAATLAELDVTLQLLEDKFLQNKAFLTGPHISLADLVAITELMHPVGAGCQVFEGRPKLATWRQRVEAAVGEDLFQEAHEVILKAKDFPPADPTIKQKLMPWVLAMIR
UniProt Q969S8: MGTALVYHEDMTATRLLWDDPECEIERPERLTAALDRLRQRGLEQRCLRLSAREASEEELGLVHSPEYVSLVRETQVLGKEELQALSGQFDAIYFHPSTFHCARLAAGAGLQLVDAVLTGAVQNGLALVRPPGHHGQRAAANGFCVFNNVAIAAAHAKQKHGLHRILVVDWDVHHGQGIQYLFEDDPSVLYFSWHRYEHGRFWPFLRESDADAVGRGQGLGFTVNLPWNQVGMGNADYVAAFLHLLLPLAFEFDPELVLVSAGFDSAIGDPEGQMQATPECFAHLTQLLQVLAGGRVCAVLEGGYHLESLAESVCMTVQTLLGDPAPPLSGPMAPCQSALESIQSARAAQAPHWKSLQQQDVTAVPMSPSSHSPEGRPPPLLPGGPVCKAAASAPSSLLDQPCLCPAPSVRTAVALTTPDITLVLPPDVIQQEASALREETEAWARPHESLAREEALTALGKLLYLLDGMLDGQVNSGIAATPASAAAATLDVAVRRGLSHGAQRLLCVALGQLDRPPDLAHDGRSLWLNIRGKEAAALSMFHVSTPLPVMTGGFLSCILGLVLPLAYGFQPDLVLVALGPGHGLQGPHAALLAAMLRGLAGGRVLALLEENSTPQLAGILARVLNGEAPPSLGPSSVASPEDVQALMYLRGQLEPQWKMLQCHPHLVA
UniProt O75367, whole entry, looked up: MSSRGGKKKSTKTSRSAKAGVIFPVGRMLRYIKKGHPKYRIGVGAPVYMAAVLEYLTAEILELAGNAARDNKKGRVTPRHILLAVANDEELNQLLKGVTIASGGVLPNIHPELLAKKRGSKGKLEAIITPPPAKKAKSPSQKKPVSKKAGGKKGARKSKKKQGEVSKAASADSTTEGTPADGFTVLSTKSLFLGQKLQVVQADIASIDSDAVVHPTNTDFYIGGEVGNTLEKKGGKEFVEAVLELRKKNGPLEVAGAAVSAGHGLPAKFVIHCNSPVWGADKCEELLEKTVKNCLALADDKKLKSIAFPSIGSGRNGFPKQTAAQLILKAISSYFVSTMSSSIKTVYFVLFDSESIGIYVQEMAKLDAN
UniProt P68871: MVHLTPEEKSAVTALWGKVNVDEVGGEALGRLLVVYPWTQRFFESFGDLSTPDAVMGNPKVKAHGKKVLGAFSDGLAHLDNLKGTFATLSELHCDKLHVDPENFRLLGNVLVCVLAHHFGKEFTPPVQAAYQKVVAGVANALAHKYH
UniProt Q969F1: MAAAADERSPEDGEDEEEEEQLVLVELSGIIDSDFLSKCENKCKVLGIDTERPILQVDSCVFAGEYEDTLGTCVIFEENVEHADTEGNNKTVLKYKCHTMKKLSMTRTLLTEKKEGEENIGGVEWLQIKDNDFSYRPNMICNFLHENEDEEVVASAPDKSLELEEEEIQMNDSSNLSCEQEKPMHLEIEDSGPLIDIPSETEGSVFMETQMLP

[2] = compound: NC1(c2ccc(-c3nc4ccn5c(=O)[nH]nc5c4cc3-c3ccccc3)cc2)CCC1
Outline: as §1

entinostat = compound: Nc1ccccc1NC(=O)c1ccc(CNC(=O)OCc2cccnc2)cc1 [entinostat]
Outline: as §1

citarinostat = compound: O=C(CCCCCCNC(=O)c1cnc(N(c2ccccc2)c2ccccc2Cl)nc1)NO [citarinostat]
Outline: as §1

silmitasertib = compound: O=C(O)c1ccc2c(c1)nc(Nc1cccc(Cl)c1)c1ccncc12 [silmitasertib]
Outline: as §1

[3] = compound: O=C1NC(=O)C(c2cnc3ccccn23)=C1c1cn2c3c(cc(F)cc13)CN(C(=O)N1CCCCC1)CC2
Outline: as §1

[4] = compound: c1cc(OCCN2CCCCC2)cc(-c2n[nH]c3ccc(-c4nnc[nH]4)cc23)c1
Outline: as §1

entospletinib = compound: c1cn2cc(-c3ccc4cn[nH]c4c3)nc(Nc3ccc(N4CCOCC4)cc3)c2n1 [entospletinib]
Outline: as §1

[5] = compound: NC(=O)c1cnc(N[C@@H]2CCCC[C@@H]2N)nc1Nc1cccc(-n2nccn2)c1
Outline: as §1

[6] = compound: NCC(=O)Nc1ccc(-n2nc(C(F)(F)F)cc2-c2ccc3c(ccc4ccccc43)c2)cc1
Outline: as §1

vorinostat = compound: O=C(CCCCCCC(=O)Nc1ccccc1)NO [vorinostat]
Outline: as §1

Measured: log2 fold change

HAGHL (UniProt Q6PII5)
inactive: [1] 0.078 | [2] -0.03 | entinostat 0.004 | citarinostat -0.065 | silmitasertib 0.075 | [3] 0.146 | [4] 0.036 | entospletinib 0.038

HAUS7 isoform 2 (UniProt Q99871)
inactive: [5] 0.066 | [6] 0.006

GTPBP8 (UniProt Q8N3Z3)
inactive: [6] -0.135 | citarinostat 0.007 | [4] -0.019 | entospletinib -0.026

HAUS8 (UniProt Q9BT25)
inactive: [5] -0.038 | [2] 0.115 | [6] 0.197 | vorinostat 0.274 | silmitasertib -0.008

HAUS6 (UniProt Q7Z4H7)
inactive: [1] 0.099 | [5] -0.542 | [2] -0.116 | entinostat 0.087 | citarinostat 0.143 | silmitasertib 0.116 | [3] 0.297 | [4] -0.196 | entospletinib 0.15

HERPUD1 (UniProt Q15011)
inactive: [2] -0.038 | [6] 0.085 | silmitasertib 0.248

HACD2 (UniProt Q6Y1H2)
inactive: [2] -0.124 | silmitasertib -0.046

GZF1 (UniProt Q9H116)
inactive: [1] 0.047 | [5] 0.195 | [6] -0.121 | entinostat -0.077

HGF (UniProt P14210)
inactive: [1] -0.109 | [2] -0.159 | entinostat -0.074 | citarinostat -0.04 | silmitasertib 0.078 | [3] -0.048 | [4] 0.117 | entospletinib 0.052

HDAC8 (UniProt Q9BY41)
inactive: [3] 0.244

HGFAC (UniProt Q04756)
inactive: [2] 0.132 | silmitasertib 0.161 | [3] 0.215

HBZ, A0A494C057
inactive: [2] -0.022 | citarinostat -0.197 | silmitasertib 0.005 | [4] 0.876

Quoted from above (11 entries):
HAUS7 isoform 2 (UniProt Q99871)
inactive: [5] 0.066 | [6] 0.006

GTPBP8 (UniProt Q8N3Z3)
inactive: [6] -0.135 | citarinostat 0.007 | [4] -0.019 | entospletinib -0.026

HAUS8 (UniProt Q9BT25)
inactive: [5] -0.038 | [2] 0.115 | [6] 0.197 | vorinostat 0.274 | silmitasertib -0.008

HAUS6 (UniProt Q7Z4H7)
inactive: [1] 0.099 | [5] -0.542 | [2] -0.116 | entinostat 0.087 | citarinostat 0.143 | silmitasertib 0.116 | [3] 0.297 | [4] -0.196 | entospletinib 0.15

HERPUD1 (UniProt Q15011)
inactive: [2] -0.038 | [6] 0.085 | silmitasertib 0.248

HACD2 (UniProt Q6Y1H2)
inactive: [2] -0.124 | silmitasertib -0.046

GZF1 (UniProt Q9H116)
inactive: [1] 0.047 | [5] 0.195 | [6] -0.121 | entinostat -0.077

HGF (UniProt P14210)
inactive: [1] -0.109 | [2] -0.159 | entinostat -0.074 | citarinostat -0.04 | silmitasertib 0.078 | [3] -0.048 | [4] 0.117 | entospletinib 0.052

HDAC8 (UniProt Q9BY41)
inactive: [3] 0.244

HGFAC (UniProt Q04756)
inactive: [2] 0.132 | silmitasertib 0.161 | [3] 0.215

HBZ, A0A494C057
inactive: [2] -0.022 | citarinostat -0.197 | silmitasertib 0.005 | [4] 0.876

Remaining list, next part

HBD (UniProt E9PEW8)
inactive: [2] 0.032 | vorinostat -0.053 | silmitasertib 0.023

GSKIP (UniProt Q9P0R6)
inactive: [5] 0.079 | [2] -0.037 | [6] 0.205 | vorinostat -0.1 | citarinostat -0.038 | silmitasertib 0.061 | [4] -0.006 | entospletinib 0.028

HAUS3 (UniProt Q68CZ6)
inactive: [5] -0.076 | [2] -0.059 | [6] 0.121 | citarinostat -0.045 | silmitasertib 0.103 | [3] 0.119 | [4] -0.128 | entospletinib 0.055

HEXIM2 (UniProt Q96MH2)
inactive: [6] 0.131 | vorinostat -0.285 | [3] -0.165

HERPUD2 (UniProt Q9BSE4)
inactive: [5] 0.042 | [6] 0.098

HGD (UniProt Q93099)
inactive: [1] 0 | entinostat -0.1 | [3] 0.029

HES1 (UniProt Q14469)
inactive: [5] -0.181 | [2] -0.015 | vorinostat 0.327 | silmitasertib -0.052

GTF3C3 (UniProt Q9Y5Q9)
inactive: [2] 0.201 | vorinostat 0.012 | citarinostat -0.031 | silmitasertib -0.222 | [4] -0.248 | entospletinib 0.051

GSTA1 (UniProt P08263)
inactive: [1] 0.22 | [6] -0.101 | entinostat 0.126 | [3] 0.332

HCFC1 (UniProt P51610)
inactive: [1] -0.072 | [2] -0.088 | [6] -0.012 | entinostat -0.088 | vorinostat -0.17 | citarinostat -0.449 | silmitasertib -0.056 | [4] 0.124 | entospletinib 0.206

HABP4 (UniProt Q5JVS0)
inactive: [3] -0.065

H3-2 (UniProt Q5TEC6)
inactive: [1] -0.29 | [2] 0.05 | [6] -0.447 | entinostat -0.077 | vorinostat 0.29 | citarinostat -0.251 | silmitasertib 0.39 | [4] -0.342 | entospletinib 0.264

H1-0 (UniProt P07305)
inactive: citarinostat -0.123 | [4] 0.132 | entospletinib -0.115

HAUS2 (UniProt Q9NVX0)
inactive: [5] 0.106 | [2] 0.074 | citarinostat -0.191 | silmitasertib 0.13 | [4] -0.04 | entospletinib -0.278

GSTT1 (UniProt P30711)
inactive: [5] 0.012 | [2] 0.03 | [6] 0.08 | vorinostat -0.022 | citarinostat -0.018 | silmitasertib -0.074 | [3] 0.019 | [4] -0.012

HEATR3 (UniProt Q7Z4Q2)
inactive: [1] 0 | [2] -0.248 | [6] -0.103 | entinostat 0.052 | vorinostat -0.017 | citarinostat 0.075 | silmitasertib 0.02 | [3] -0.051 | [4] 0.047

GTF2H1 (UniProt P32780)
inactive: [2] 0.126 | [6] 0.128 | vorinostat -0.093 | citarinostat 0.146 | silmitasertib -0.087 | [4] -0.192 | entospletinib -0.124

HDAC10 (UniProt Q969S8)
inactive: [5] 0.061 | [2] -0.076 | [6] -0.033 | vorinostat 0.208 | citarinostat 0.062 | silmitasertib -0.271 | [4] -0.09

HECTD4 (UniProt Q9Y4D8)
inactive: [2] 0.005 | [6] 0.065 | silmitasertib -0.09

H2AFY (UniProt O75367)
inactive: [2] 0.147 | vorinostat 0.174 | citarinostat 0.067 | silmitasertib 0.042 | [3] 0.165 | [4] 0.01 | entospletinib 0.185

HBB (UniProt P68871)
inactive: [5] 1.75 | [2] 0.151 | citarinostat 0.054 | silmitasertib -0.122 | [4] -0.193 | entospletinib 0.548

H3-3A (UniProt P84243)
inactive: [1] 0.072 | [2] -0.095 | [6] -0.096 | entinostat 0.104 | citarinostat 0.157 | silmitasertib -0.046 | [4] 0.028

GTF3C6 (UniProt Q969F1)
inactive: [1] -0.04 | [2] -0.047 | [6] 0.085 | entinostat -0.021 | vorinostat -0.061 | citarinostat 0.086 | silmitasertib 0.131 | [3] 0.164 | [4] -0.165 | entospletinib 0.027
